Reference: patent US20250019410A1 (Sun Pharmaceutical Industries Ltd., priority 2021, published 2025)

Assay: general procedure: Fmoc solid-phase peptide synthesis; 2-chlorotrityl chloride resin (protected fragments); Fmoc-Rink Amide AM resin (tirzepatide); Coupling reagent/Auxiliary nucleophile/Base
Details: whole synthesis, sodium salt, acetate salt; for crude purity (method not given): HPLC

**Q.** For Boc-Tyr(tBu)^t-Aib-Glu(OtBu)-Gly^4-OH, which “crude purity (method not given)” value is on record?
**A.** 96% Purity

**Q.** What about the crude yield of the same substance?
**A.** 91% Yield

**Q.** For “Fmoc-Ala^18-Gln(Trt)-Lys(Side Chain)*-Ala-Phe-Val-Gln(Trt)-Trp^25-Leu-Ile-Ala-Gly^29-OH”, which “crude purity (method not given)” value is on record?
**A.** 92% Purity

**Q.** Which “crude purity (method not given)” value does the source give for “Fmoc-Ala^18-Gln(Trt)-Lys(ivdde)*-Ala Phe-Val-Gln(Trt)-Trp^25-Leu-Ile-Ala-Gly^29-OH” here?
**A.** 95% Purity

**Q.** And the crude yield?
**A.** 95% Yield

**Q.** Which “crude purity (method not given)” value does the source give for “Fmoc-Lys(Boc)^16-Ile-Ala-Gln(Trt)-Lys(Side chain)*-Ala-Phe-Val-Gln(Trt)-Trp-Leu-Ile-Ala -Gly^29-OH” here?
**A.** 80% Purity

**Q.** For Fmoc-Thr(tBu)^5-Phe-Thr(tBu)-Ser(tBu)^8, which “crude purity (method not given)” value is on record?
**A.** 99% Purity

**Q.** And the crude yield?
**A.** >90% Yield
